# Source: the supplement of paper PMC8728848
# The other results are listed elsewhere or left out.
# Columns and labels:
# Assay in all cases: glycan array binding signal (z-score within array); higher = stronger binding
# Conditions in all cases: glycan notation: IUPAC condensed, linker removed
# [1] = target: Neu5Ac(a2-3)Gal(b1-3)GalNAc
# Method in brief: (§1)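 Glycan array data were curated from 3228 arrays in the Consortium for Functional Glycomics database and kept only where the protein sequence was available. Glycan names were converted to IUPAC-condensed notation, and columns mapping to the same glycan were averaged. The binding signal is a within-array Z-score, averaged across arrays of the same protein sequence at different concentrations or buffers and across linkers. Negative Z-scores can be read as non-binding.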
# [2] = target: Neu5Ac(a2-3)Gal(b1-3)GalNAc(b1-3)Gal(a1-4)Gal(b1-4)Glc
# Method in brief: as §1
# [3] = target: Neu5Ac(a2-3)Gal(b1-3)GalNAc(b1-4)Gal(b1-4)Glc
# Method in brief: as §1
# [4] = target: Neu5Ac(a2-3)Gal(b1-3)GalNAc(b1-4)[Neu5Ac(a2-3)]Gal(b1-4)Glc
# Method in brief: as §1
# [5] = target: Neu5Ac(a2-3)Gal(b1-3)GalNAc(b1-4)[Neu5Ac(a2-8)Neu5Ac(a2-3)]Gal(b1-4)Glc
# Method in brief: as §1
# [6] = target: Neu5Ac(a2-3)Gal(b1-3)GalNAc6S
# Method in brief: as §1
# [7] = target: Neu5Ac(a2-3)Gal(b1-3)GlcNAc
# Method in brief: as §1
# [8] = target: Neu5Ac(a2-3)Gal(b1-3)GlcNAc(b1-2)Man
# Method in brief: as §1
# [9] = target: Neu5Ac(a2-3)Gal(b1-3)GlcNAc(b1-2)Man(a1-3)[GlcNAc(b1-4)][Neu5Ac(a2-3)Gal(b1-3)GlcNAc(b1-2)Man(a1-6)]Man(b1-4)GlcNAc(b1-4)GlcNAc
# Method in brief: as §1
# [10] = target: Neu5Ac(a2-3)Gal(b1-3)GlcNAc(b1-2)Man(a1-3)[Neu5Ac(a2-3)Gal(b1-3)GlcNAc(b1-2)Man(a1-6)]Man(b1-4)GlcNAc(b1-4)GlcNAc
# Method in brief: as §1
# [11] = target: Neu5Ac(a2-3)Gal(b1-3)GlcNAc(b1-2)[Neu5Ac(a2-3)Gal(b1-3)GlcNAc(b1-4)]Man(a1-6)[Neu5Ac(a2-3)Gal(b1-3)GlcNAc(b1-2)Man(a1-3)]Man(b1-4)GlcNAc(b1-4)GlcNAc
# Method in brief: as §1
# [12] = target: Neu5Ac(a2-3)Gal(b1-3)GlcNAc(b1-3)Gal(b1-3)GlcNAc
# Method in brief: as §1
# [13] = target: Neu5Ac(a2-3)Gal(b1-3)GlcNAc(b1-3)Gal(b1-4)GlcNAc
# Method in brief: as §1
# [14] = target: Neu5Ac(a2-3)Gal(b1-3)GlcNAc(b1-3)GalNAc
# Method in brief: as §1
# [15] = target: Neu5Ac(a2-3)Gal(b1-3)GlcNAc(b1-6)GalNAc
# Method in brief: as §1
# [16] = target: Neu5Ac(a2-3)Gal(b1-3)GlcNAc6S
# Method in brief: as §1
# [17] = target: Neu5Ac(a2-3)Gal(b1-3)[Fuc(a1-4)]GlcNAc
# Method in brief: as §1
# [18] = target: Neu5Ac(a2-3)Gal(b1-3)[Fuc(a1-4)]GlcNAc(b1-3)Gal(b1-3)[Fuc(a1-4)]GlcNAc
# Method in brief: as §1
# [19] = target: Neu5Ac(a2-3)Gal(b1-3)[Fuc(a1-4)]GlcNAc(b1-3)Gal(b1-4)[Fuc(a1-3)]GlcNAc
# Method in brief: as §1
# [20] = target: Neu5Ac(a2-3)Gal(b1-3)[GlcNAc(b1-6)]GalNAc
# Method in brief: as §1
# [21] = target: Neu5Ac(a2-3)Gal(b1-3)[Neu5Ac(a2-6)]GalNAc
# Method in brief: as §1
# [22] = target: Neu5Ac(a2-3)Gal(b1-3)[Neu5Ac(a2-6)]GlcNAc(b1-3)[Fuc(a1-3)[Gal(b1-4)]GlcNAc(b1-6)]Gal(b1-4)Glc
# Method in brief: as §1
binder,measurement,setting,value
EUL D1A first (Oryza sativa) (protein) MFGFGHHHNQAPAAPSDPNQIFKIFCRANENYCLTVRDSAVVLAPVNPKDEHQHWFKDMRFSTKVKDGEGMPAFALVNKATGLAVKHSLGQSHPVKLVPFNPEYEDASVLWTESKDVGKGFRCIRMVNNTRLNLDAFHGDKDHGGVRDGTTVVLWEWCKGDNQSWKILPWGPEAHSSSPGAATILEQKLISEEDLNSAVDHHHHHH,glycan array binding signal (z-score),[1],0.04
same,glycan array binding signal (z-score),[2],-0.673
same,glycan array binding signal (z-score),[3],-1.62
same,glycan array binding signal (z-score),[4],-0.536
same,glycan array binding signal (z-score),[5],0.621
same,glycan array binding signal (z-score),[6],0.472
same,glycan array binding signal (z-score),[7],0.945
same,glycan array binding signal (z-score),[8],0.094
same,glycan array binding signal (z-score),[9],-0.059
same,glycan array binding signal (z-score),[10],0.053
same,glycan array binding signal (z-score),[11],0.913
same,glycan array binding signal (z-score),[12],0.506
same,glycan array binding signal (z-score),[13],-0.002
same,glycan array binding signal (z-score),[14],-1.42
same,glycan array binding signal (z-score),[15],-0.676
same,glycan array binding signal (z-score),[16],-0.173
same,glycan array binding signal (z-score),[17],-0.746
same,glycan array binding signal (z-score),[18],0.057
same,glycan array binding signal (z-score),[19],0.634
same,glycan array binding signal (z-score),[20],0.405
same,glycan array binding signal (z-score),[21],0.105
same,glycan array binding signal (z-score),[22],0.5

# A second format for some results above.
binder	measurement	setting	value
EUL D1A first (Oryza sativa) (protein) MFGFGHHHNQAPAAPSDPNQIFKIFCRANENYCLTVRDSAVVLAPVNPKDEHQHWFKDMRFSTKVKDGEGMPAFALVNKATGLAVKHSLGQSHPVKLVPFNPEYEDASVLWTESKDVGKGFRCIRMVNNTRLNLDAFHGDKDHGGVRDGTTVVLWEWCKGDNQSWKILPWGPEAHSSSPGAATILEQKLISEEDLNSAVDHHHHHH	glycan array binding signal (z-score)	[2]	-0.673
same	glycan array binding signal (z-score)	[3]	-1.62
